Source: PMC2670979
These are yes or no findings as the source states them, for the method shown. In cells and extracts the contact can be indirect. Binding can be weak; no strength is given. Blank lines part the entries; values can stand above or below the binder they belong to.

Chains of the proteins cited; added tags and fusions are not shown. Lines headed by an entry give the natural chain unless they say otherwise; changes in a name come on top.
UniProt Q8IXI2: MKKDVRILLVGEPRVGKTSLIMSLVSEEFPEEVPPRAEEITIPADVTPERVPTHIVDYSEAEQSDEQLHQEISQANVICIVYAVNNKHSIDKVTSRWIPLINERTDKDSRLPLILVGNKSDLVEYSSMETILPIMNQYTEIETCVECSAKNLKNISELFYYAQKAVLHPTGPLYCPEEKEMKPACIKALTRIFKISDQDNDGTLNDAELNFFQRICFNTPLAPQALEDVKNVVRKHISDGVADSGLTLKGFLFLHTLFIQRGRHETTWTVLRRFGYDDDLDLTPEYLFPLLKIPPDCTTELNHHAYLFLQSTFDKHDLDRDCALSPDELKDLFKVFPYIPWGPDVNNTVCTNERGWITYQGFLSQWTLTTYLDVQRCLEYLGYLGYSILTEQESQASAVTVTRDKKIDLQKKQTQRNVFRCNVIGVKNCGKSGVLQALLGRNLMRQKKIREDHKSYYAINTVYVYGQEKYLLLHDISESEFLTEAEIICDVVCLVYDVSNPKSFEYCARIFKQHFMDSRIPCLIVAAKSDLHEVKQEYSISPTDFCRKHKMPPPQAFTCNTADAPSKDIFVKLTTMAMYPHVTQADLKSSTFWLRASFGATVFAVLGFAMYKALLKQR

How the values were obtained:
GST-Miro1 WT [1] = target: GST-Miro1 WT (UniProt Q8IXI2); test: pull-down; as a1 but with KIF5C, TRAK2 (1-700) and GST-Miro1 (WT or ΔEF) all three present together; with and without Ca2+; only the target purified
GST-Miro1 WT [2] = target: GST-Miro1 WT (UniProt Q8IXI2); test: pull-down; 20 ug GST fusion protein (or GST alone) on glutathione sepharose beads; 2.5 ul of one 35S-labelled in vitro translated protein; 1-2 hr at 4°C; 50 mM HEPES, 125 mM NaCl, 5 mM H-EDTA; no other proteins in the system; no added Ca2+, repeated with 2 mM Ca2+; phosphor storage screen; only the target purified

binding (GST-Miro1 WT [1]): binds
B1: TRAK2 (amino acids 1–700) (domain or fragment, UniProt Q8R2H7 1-700)
chain: MSLSQNAIFKSQTGEENLMSSNHRDSESITDVCSNEDLPEVELVNLLEEQLPQYKLRVDSLFLYENQDWSQSSHQQQDASETLSPVLAEETFRYMILGTDRVEQMTKTYNDIDMVTHLLAERDRDLELAARIGQALLKRNHVLSEQNESLEEQLGQAFDQVNQLQHELSKKEELLRIVSIASEESETDSSCSTPLRFNESFSLSQGLLQLDMMHEKLKELEEENMALRSKACHIKTETFTYEEKEQKLINDCVNELRETNAQMSRMTEELSGKSDELLRYQEEISSLLSQIVDLQHKLKEHVIEKEELRLHLQASKDAQRQLTMELHELQDRNMECLGMLHESQEEIKELRNKAGPSAHLCFSQAYGVFAGESLAAEIEGTMRKKLSLDEESVFKQKAQQKRVFDTVKVANDTRGRSVTFPVLLPIPGSNRSSVIMTAKPFESGVQQTEDKTLPNQGSSTEVPGNSHPRDPPGLPEDSDLATALHRLSLRRQNYLSEKQFFAEEWERKLQILAEQEEEVSSCEALTENLASFCTDQSETTELGSAGCLRGFMPEKLQIVKPLEGSQTLHHWQQLAQPNLGTILDPRPGVITKGFTQMPKDAVYHISDLEEDEEVGITFQVQQPLQLEQKPAPPPPVTGIFLPPMTSAGGPVSVATSNPGKCLSFTNSTFTFTTCRILHPSDITQVTPSSGFPSLSCGSSA
modifications: 35S-methionine label

binding (GST-Miro1 WT [2]): binds
B2: TRAK2 (amino acids 476–700) (domain or fragment, UniProt Q8R2H7 476-700)
chain: EDSDLATALHRLSLRRQNYLSEKQFFAEEWERKLQILAEQEEEVSSCEALTENLASFCTDQSETTELGSAGCLRGFMPEKLQIVKPLEGSQTLHHWQQLAQPNLGTILDPRPGVITKGFTQMPKDAVYHISDLEEDEEVGITFQVQQPLQLEQKPAPPPPVTGIFLPPMTSAGGPVSVATSNPGKCLSFTNSTFTFTTCRILHPSDITQVTPSSGFPSLSCGSSA
modifications: 35S-methionine label
